Laboratory results taken from patent US20110312894A1 (priority 2009, published 2011).
These are yes or no findings as the source states them, for the method shown. In cells and extracts the contact can be indirect. Some binding calls cover weakened binding; strength is not graded here.

Protein sequences, listed by entry. Tags and fused reporters are not part of them. Lines headed by an entry give the natural chain unless they say otherwise; changes in a name come on top. Residues count along the entry.
UniProt P49582, residues 23-502: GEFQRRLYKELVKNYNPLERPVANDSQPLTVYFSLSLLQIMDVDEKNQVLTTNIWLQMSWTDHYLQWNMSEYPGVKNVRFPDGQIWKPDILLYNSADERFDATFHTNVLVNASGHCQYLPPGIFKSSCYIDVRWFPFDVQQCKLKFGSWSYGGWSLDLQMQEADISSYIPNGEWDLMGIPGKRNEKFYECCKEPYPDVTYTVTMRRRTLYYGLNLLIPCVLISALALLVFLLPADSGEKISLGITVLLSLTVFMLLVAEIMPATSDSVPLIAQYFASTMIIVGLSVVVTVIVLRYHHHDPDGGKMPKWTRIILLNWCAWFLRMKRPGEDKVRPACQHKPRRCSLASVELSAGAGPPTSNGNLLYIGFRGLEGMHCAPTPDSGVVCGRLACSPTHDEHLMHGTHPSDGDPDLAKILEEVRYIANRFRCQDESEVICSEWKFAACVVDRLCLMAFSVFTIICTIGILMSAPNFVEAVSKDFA
UniProt Q9ERK7: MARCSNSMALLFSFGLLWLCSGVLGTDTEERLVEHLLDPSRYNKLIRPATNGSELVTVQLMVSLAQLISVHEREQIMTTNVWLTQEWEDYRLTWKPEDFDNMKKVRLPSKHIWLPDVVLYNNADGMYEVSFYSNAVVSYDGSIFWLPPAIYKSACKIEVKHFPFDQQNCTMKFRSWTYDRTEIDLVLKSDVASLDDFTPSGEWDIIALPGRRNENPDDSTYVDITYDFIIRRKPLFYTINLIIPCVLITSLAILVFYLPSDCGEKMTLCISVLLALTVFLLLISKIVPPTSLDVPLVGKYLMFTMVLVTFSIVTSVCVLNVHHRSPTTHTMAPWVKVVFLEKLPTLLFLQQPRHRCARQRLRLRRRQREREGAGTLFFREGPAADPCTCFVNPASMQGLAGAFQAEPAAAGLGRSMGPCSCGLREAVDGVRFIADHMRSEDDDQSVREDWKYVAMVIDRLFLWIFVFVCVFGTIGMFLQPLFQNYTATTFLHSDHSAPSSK

Molecular target: mouse nicotinic acetylcholine receptor (nAChR) α7 subunit (mouse) (UniProt P49582)
Test: co-immunoprecipitation from MS/DB extract of wild-type mice: IP with H302 anti-α7, immunoblot with mAb270 anti-β2

In the case of “mouse nicotinic acetylcholine receptor (nAChR) β2 subunit (from UniProt Q9ERK7 26-501)”, the binding is reported as “binds”.
